This is an account of results in the supplement of paper PMC10849652.

Protein sequences, listed by entry. Tags and fused reporters are not part of them. Lines headed by an entry give the natural chain unless they say otherwise; changes in a name come on top.
UniProt Q92686, whole entry, looked up: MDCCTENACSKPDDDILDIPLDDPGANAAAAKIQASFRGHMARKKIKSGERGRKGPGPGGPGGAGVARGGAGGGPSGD
UniProt P13056: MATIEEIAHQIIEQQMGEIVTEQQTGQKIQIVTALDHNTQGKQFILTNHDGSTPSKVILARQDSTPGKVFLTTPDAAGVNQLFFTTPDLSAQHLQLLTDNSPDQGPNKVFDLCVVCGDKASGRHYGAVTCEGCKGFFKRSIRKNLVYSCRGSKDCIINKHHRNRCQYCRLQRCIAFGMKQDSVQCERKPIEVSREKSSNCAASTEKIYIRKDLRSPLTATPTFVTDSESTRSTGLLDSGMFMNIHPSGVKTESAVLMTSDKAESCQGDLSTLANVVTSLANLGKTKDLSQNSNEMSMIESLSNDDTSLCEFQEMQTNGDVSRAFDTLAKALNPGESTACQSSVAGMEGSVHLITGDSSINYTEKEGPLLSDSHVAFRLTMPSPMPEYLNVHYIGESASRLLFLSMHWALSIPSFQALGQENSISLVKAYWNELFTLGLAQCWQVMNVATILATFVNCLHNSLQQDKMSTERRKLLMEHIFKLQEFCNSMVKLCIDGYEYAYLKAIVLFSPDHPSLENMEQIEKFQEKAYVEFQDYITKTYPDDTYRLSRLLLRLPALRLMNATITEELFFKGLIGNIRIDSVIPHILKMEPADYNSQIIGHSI
UniProt Q96T66: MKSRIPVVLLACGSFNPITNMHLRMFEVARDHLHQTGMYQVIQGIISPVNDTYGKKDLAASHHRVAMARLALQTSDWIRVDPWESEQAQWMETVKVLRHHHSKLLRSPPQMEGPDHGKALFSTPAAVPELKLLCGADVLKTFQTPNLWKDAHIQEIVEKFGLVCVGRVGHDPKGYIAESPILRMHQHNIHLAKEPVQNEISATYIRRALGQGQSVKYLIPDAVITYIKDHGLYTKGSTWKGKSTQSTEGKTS
UniProt Q96AB6: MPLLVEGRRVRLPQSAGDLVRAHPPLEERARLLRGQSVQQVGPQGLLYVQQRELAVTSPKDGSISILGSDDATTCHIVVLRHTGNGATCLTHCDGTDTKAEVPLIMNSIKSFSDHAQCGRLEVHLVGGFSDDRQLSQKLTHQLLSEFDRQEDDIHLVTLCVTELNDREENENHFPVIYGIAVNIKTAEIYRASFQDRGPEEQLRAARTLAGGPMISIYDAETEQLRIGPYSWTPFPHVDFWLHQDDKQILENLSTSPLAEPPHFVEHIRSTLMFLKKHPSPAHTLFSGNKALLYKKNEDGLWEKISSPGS
UniProt Q9UHK0: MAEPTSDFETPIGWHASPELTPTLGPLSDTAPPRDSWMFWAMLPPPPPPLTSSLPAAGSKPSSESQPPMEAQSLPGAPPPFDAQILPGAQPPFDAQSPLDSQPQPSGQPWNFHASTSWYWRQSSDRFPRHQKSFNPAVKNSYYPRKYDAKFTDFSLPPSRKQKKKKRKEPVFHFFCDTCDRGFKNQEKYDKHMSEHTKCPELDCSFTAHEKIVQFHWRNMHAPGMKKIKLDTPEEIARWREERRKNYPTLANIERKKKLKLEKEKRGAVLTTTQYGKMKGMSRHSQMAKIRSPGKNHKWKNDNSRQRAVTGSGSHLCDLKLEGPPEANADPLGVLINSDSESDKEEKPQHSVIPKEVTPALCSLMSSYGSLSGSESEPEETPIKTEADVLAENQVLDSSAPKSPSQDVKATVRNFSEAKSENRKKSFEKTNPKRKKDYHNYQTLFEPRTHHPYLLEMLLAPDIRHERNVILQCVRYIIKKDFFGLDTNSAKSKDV
UniProt Q12980: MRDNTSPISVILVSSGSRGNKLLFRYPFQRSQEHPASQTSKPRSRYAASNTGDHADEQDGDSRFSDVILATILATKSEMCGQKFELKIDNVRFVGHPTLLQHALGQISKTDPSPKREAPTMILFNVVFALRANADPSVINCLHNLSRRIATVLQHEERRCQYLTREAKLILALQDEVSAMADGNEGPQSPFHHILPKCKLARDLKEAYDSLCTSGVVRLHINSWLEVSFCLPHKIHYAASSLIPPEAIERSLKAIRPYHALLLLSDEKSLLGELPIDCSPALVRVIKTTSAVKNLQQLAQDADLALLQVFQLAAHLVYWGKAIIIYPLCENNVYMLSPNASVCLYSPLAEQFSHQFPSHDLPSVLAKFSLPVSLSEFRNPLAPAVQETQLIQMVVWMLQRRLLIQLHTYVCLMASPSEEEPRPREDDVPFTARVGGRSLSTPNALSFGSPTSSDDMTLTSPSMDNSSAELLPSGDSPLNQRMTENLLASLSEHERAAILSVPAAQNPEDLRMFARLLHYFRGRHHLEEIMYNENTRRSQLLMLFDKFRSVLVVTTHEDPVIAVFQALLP
UniProt P48645: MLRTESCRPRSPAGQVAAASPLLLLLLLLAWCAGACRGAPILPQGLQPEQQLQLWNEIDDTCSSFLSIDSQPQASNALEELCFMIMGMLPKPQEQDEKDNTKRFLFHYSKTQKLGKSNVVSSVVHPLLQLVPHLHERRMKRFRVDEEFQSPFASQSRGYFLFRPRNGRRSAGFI
UniProt Q96MY1: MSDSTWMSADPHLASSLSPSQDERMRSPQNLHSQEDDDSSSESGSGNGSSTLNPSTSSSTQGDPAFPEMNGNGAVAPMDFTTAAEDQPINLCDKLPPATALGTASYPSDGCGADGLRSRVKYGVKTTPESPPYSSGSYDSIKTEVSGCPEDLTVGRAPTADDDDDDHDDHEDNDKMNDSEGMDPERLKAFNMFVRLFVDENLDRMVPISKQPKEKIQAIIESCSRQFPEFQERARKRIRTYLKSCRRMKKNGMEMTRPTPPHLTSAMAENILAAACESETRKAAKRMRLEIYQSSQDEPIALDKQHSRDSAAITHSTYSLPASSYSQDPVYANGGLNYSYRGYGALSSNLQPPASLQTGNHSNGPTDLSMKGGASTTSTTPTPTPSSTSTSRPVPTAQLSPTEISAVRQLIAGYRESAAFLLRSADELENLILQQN
UniProt Q76FK4: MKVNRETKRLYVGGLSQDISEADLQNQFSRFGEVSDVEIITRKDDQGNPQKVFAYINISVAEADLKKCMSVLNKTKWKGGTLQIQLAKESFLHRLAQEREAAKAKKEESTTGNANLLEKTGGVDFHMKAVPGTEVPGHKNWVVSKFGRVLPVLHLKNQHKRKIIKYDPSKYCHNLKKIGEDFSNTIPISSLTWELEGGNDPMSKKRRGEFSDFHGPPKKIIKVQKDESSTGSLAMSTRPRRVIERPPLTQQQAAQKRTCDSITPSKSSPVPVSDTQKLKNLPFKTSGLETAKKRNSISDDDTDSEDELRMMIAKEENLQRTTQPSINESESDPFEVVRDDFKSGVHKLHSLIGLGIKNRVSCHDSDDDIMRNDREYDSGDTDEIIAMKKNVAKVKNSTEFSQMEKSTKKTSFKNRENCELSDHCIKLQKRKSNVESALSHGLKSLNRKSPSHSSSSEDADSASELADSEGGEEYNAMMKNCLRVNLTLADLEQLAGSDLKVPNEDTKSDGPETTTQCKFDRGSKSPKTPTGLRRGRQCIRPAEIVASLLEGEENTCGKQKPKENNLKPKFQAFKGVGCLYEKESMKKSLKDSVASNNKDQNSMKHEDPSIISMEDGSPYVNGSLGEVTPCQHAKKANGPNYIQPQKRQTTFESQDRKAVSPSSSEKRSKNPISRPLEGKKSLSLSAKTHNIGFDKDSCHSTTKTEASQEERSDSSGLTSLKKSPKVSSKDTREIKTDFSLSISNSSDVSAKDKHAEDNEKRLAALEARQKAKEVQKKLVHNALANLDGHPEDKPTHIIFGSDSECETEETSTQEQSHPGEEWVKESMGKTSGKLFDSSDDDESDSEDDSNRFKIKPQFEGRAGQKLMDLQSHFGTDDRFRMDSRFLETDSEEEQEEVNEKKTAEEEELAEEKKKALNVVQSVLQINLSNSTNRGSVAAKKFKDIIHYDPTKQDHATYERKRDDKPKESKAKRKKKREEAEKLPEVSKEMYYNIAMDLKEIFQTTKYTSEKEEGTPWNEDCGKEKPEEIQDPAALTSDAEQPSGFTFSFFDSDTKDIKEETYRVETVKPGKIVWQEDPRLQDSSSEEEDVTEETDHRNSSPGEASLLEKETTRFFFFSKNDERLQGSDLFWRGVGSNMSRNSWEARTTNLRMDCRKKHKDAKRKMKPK
UniProt P04629: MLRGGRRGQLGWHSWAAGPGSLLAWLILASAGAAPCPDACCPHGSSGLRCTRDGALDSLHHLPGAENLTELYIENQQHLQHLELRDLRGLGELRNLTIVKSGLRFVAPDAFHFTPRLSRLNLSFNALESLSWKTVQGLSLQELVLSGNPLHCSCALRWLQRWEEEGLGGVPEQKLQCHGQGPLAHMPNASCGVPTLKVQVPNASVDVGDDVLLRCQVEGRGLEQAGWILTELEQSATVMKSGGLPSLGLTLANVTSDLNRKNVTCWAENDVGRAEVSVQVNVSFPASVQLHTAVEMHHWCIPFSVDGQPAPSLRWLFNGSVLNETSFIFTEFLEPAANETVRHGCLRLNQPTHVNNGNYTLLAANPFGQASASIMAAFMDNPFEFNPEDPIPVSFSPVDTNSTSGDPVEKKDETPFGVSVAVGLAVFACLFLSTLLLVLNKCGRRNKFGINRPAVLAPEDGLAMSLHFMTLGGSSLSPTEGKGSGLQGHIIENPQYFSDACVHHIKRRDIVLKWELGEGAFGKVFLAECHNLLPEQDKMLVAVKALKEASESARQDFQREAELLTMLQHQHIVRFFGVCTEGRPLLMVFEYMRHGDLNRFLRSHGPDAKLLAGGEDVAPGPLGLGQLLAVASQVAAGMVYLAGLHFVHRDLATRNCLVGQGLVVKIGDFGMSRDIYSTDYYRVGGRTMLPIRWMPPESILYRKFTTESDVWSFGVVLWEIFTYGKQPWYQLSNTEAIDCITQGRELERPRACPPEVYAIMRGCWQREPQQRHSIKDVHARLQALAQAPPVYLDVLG
UniProt Q9NQ35: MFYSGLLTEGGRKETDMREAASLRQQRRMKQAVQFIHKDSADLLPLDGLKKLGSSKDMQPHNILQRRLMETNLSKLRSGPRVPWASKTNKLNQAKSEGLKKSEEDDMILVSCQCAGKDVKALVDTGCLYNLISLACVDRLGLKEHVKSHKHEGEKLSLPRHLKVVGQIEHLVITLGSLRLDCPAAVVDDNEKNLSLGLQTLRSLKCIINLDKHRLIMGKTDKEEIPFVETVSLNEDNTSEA
UniProt Q6ZVK8: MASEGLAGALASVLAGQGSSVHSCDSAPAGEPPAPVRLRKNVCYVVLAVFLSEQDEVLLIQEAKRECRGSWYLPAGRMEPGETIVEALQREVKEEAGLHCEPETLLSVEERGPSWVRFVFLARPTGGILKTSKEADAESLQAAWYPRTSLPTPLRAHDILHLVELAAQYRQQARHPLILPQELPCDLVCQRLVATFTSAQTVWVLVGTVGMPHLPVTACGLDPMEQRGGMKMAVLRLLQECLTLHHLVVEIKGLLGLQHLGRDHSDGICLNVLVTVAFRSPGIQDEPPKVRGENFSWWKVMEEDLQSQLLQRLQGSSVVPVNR
UniProt Q5C9Z4: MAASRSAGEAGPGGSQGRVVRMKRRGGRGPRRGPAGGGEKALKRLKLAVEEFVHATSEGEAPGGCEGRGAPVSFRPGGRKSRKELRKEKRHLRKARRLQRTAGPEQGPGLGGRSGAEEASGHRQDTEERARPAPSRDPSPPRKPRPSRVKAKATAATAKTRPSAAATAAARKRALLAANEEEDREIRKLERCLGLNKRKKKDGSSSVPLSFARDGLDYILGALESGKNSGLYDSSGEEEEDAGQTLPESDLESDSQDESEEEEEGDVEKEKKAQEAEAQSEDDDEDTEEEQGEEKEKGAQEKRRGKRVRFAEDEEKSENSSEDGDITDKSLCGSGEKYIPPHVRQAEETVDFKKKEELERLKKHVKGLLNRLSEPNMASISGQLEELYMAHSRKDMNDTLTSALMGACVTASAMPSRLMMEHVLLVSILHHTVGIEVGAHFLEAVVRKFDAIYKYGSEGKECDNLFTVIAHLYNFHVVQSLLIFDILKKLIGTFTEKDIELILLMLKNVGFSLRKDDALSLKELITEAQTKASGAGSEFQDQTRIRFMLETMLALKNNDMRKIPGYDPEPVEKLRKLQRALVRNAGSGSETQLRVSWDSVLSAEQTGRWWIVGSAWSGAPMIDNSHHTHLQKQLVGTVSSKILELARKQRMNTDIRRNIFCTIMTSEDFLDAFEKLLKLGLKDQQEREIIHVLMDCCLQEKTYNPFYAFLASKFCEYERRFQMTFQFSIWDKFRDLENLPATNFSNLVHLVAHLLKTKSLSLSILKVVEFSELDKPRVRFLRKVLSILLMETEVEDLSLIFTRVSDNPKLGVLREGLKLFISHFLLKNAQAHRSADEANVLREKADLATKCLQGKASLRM

Some of the results follow.

Compound in one experiment: Cc1ccc(NC(=O)c2ccc(CN3CC[C@H](N(C)C)C3)c(C(F)(F)F)c2)cc1Nc1nccc(-c2cncnc2)n1 [bafetinib]
The experiment in a line: log2 fold change, soluble protein after heating vs DMSO (PISA); higher = thermal stabilisation; K562 lysate, 10 uM; active = over 0.2 and 3.5 SD of the protein, either way, in both replicates (recomputed). In a few lines:
(§1)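 The values are log-two fold changes in thermal stability compared with solvent controls and come from duplicates. They were obtained by TMTpro 16plex LC-MS/MS, with channel sums equalised, on the supernatant after 21,000xg for 90 min. That supernatant came from crude K562 extract at 1 mg/mL protein treated with 10 μM compound for 30 min, heated for 3 min across 48°C-58°C, pooled and brought to 0.5% NP-40 at 4°C.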
NR3C1 isoform 3 (UniProt P04150): the log2 fold change is inactive: -0.027.

For the target NRGN (UniProt Q92686), the log2 fold change was inactive: -0.088.

Regarding NR2C1 (UniProt P13056), the log2 fold change is inactive: -0.27.

Take NPLOC4 (UniProt I3L3I1): the log2 fold change is inactive: -0.214.

For the target NMNAT3 (UniProt Q96T66), the log2 fold change is inactive: -0.116.

Regarding NTAN1 (UniProt Q96AB6), the log2 fold change was inactive: -0.05.

Take NUFIP1 (UniProt Q9UHK0): the log2 fold change is inactive: -0.104.

On to NSD3 (UniProt Q9BZ95), for which the log2 fold change is inactive: -0.023.

Compound in another experiment: Cc1cccc(CC(=O)N2CCc3c2ccc(-c2cn(C)c4ncnc(N)c24)c3F)n1
Described as above. In a few lines: as §1
As for NR3C1 isoform 3 (UniProt P04150), the log2 fold change was inactive: 0.073.

For NPRL3 (UniProt Q12980), the log2 fold change is inactive: 0.276.

As to NR2C1 (UniProt P13056), the log2 fold change was inactive: -0.119.

Turning to NMU (UniProt P48645), the log2 fold change was inactive: 0.054.

For NSD1 (UniProt Q96L73), the log2 fold change was inactive: -0.002.

For the target NOL4L (UniProt Q96MY1), the log2 fold change is inactive: -0.059.

In the case of NOL8 (UniProt Q76FK4), the log2 fold change was inactive: 0.078.

For the target NTAN1 (UniProt Q96AB6), the log2 fold change was inactive: 0.076.

As for NTRK1 (UniProt P04629), the log2 fold change is inactive: 0.272.

NRIP3 (UniProt Q9NQ35): the log2 fold change is inactive: -0.061.

NUFIP1 (UniProt Q9UHK0): the log2 fold change is inactive: 0.071.

On to NSD3 (UniProt Q9BZ95), for which the log2 fold change was inactive: 0.035.

Take NUDT18 (UniProt Q6ZVK8): the log2 fold change was inactive: -0.008.

As to NOM1 (UniProt Q5C9Z4), the log2 fold change was inactive: 0.024.
